Source: publication PMC8363014
These are yes or no findings as the source states them, for the method shown. Some binding calls cover weakened binding; strength is not graded here. For part of these data: Sequences can lack the tags named with a protein.

Chains of the proteins cited; added tags and fusions are not shown.
UniProt Q6VAM4: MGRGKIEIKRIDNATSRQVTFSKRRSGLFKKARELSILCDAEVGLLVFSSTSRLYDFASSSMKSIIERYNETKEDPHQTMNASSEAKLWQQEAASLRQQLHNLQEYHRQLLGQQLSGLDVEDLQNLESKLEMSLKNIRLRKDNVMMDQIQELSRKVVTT

Columns and labels:
Experiment in all cases: two-hybrid; SAPK9 in pGBKT7 (BD), OsMADS23 in pGADT7 (AD); yeast strain Y2H Gold; growth on SD/-Ade-His-Leu-Trp in the presence of aba and X-α-gal
[1] = biological target: T1, SAPK9 in pGBKT7 (binding domain fusion) (rice) (UniProt Q75V57)
T1 sequence: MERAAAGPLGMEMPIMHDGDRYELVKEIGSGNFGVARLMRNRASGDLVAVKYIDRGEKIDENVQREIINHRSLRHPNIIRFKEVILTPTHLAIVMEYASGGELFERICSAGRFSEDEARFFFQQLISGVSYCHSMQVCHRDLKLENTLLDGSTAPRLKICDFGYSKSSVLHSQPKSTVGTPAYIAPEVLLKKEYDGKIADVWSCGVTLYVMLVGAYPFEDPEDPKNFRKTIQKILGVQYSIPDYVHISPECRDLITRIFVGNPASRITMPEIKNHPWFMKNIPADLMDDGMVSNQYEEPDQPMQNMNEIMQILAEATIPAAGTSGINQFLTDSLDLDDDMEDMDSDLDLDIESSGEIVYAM

[2] = biological target: T2, SAPK8 (yeast two-hybrid construct) (rice) (UniProt Q7Y0B9)
T2 sequence: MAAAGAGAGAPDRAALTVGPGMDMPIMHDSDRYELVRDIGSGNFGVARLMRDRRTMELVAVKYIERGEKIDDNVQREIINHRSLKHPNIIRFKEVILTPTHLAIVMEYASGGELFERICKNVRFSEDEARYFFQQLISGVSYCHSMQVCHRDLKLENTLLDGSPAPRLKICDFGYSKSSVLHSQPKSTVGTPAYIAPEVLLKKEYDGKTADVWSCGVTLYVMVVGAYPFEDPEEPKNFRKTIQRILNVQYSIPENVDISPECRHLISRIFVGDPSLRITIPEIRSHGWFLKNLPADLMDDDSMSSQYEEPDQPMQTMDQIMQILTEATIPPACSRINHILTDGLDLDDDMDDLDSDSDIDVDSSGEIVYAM

[3] = biological target: T3, SAPK10 (yeast two-hybrid construct) (rice) (UniProt Q75H77)
T3 sequence: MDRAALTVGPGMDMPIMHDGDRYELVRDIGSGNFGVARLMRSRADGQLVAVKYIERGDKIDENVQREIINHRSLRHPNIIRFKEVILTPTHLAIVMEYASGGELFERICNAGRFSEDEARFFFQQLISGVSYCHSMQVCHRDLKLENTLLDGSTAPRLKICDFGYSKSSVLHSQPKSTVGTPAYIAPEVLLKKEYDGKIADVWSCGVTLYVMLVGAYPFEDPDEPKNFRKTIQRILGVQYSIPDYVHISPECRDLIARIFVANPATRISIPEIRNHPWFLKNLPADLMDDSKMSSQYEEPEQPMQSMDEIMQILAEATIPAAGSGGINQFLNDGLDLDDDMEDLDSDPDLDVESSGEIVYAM

In the case of “OsMADS23 in pGADT7 (activation domain fusion) (from UniProt Q6VAM4 1-159)”, the binding [1] is reported as “binds”, the binding [2] is reported as “no binding” and the binding [3] is reported as “no binding”.
